The list is a part of this screen's results and no random one: it gathers tests that were run many times, whatever their T/C, doses with no T/C, and many T/C values between a quarter and a half above the control. Further doses and runs are listed elsewhere. T/C gives the treated animals as a percentage of the vehicle group. Some entries give survivors of the animals treated and no T/C: the source holds a T/C of zero for them, seemingly a mark for toxic or unscored doses. Some survivor counts are full or nearly so, which does not show that the dose was tolerated: the source hardly ever lists a survival T/C far under the control, and the zero likely stands for such cases as well. Survivors were counted at the toxicity check, usually on the fifth day, unless a day is given; later deaths do not show. Schedule codes are those of the source, taken here to give the interval after Q, in days (D) or hours (H), and the number of doses after X. Some schedules carry Z or #; the key to these is not given. For survival time, this PubChem deposit counts one and a half times the control or more as active, and values a quarter to a half above the control carry no call in these data; other NCI protocols may use other cut-offs. Some entries were tested several times; their values stand side by side, smallest first. Some T/C values carry the count of animals alive at the toxicity check (mostly the fifth day); where none is given, no animal had died by that day.
Test system: L1210 leukemia ip in BDF1 mice, survival T/C
Assay: NCI In Vivo Anticancer Drug Screen. Data for tumor model L1210 Leukemia (intraperitoneal) in B6D2F1 (BDF1) mice
Conditions: T/C endpoint: mean survival time, higher T/C = longer survival
[1] = dose: 150.0 mg/kg/injection, schedule: Q01DX001 (ip), vehicle: saline
[2] = dose: 300.0 mg/kg/injection, schedule: Q01DX001 (ip), vehicle: saline
[3] = dose: 200.0 mg/kg/injection, schedule: Q01DX009 (ip), vehicle: Klucel (hydroxypropylcellulose) (HPC)
[4] = dose: 400.0 mg/kg/injection, schedule: Q04DX003 (ip), vehicle: Klucel (hydroxypropylcellulose) (HPC)
[5] = dose: 200.0 mg/kg/injection, schedule: Q04DX003 (ip), vehicle: Klucel (hydroxypropylcellulose) (HPC)
[6] = dose: 200.0 mg/kg/injection, schedule: Q04DX003 (ip), vehicle: saline
[7] = dose: 400.0 mg/kg/injection, schedule: Q04DX003 (ip), vehicle: saline
[8] = dose: 7.5 mg/kg/injection, schedule: Q01DX Z (ip), vehicle: saline
[9] = dose: 30.0 mg/kg/injection, schedule: Q01DX Z (ip), vehicle: saline
[10] = dose: 60.0 mg/kg/injection, schedule: Q01DX Z (ip), vehicle: saline
[11] = dose: 120.0 mg/kg/injection, schedule: Q01DX Z (ip), vehicle: saline

SMILES: C[n+]1c(/C=C/c2ccnc3c(O)cccc23)sc2ccccc21
- survivor count (dose: 60.0 mg/kg/injection, schedule: Q01DX001 (ip), vehicle: saline): 4 of 6

SMILES: CC1CCN(C(=O)CCCCl)CC1
- survivor count (dose: 400.0 mg/kg/injection, schedule: Q04DX002 (ip), vehicle: saline): 3 of 3

SMILES: CSC(=S)NNC(=O)c1ccc(C(F)(F)F)cc1
- survivor count (dose: 75.0 mg/kg/injection, schedule: Q01DX001 (ip), vehicle: saline): 0 of 6
- survivor count [1]: 0 of 6
- survivor count [2]: 0 of 6

SMILES: CCOC(=O)C(C(=O)OCC)C(=O)c1cc(-c2ccc(Cl)c(Cl)c2)nc2c(Cl)cc(Cl)cc12
- survivor count [3]: 2 of 6
- survivor count [4]: 1 of 6

SMILES: CCCCCCCCCCOP(=S)(N1CC1)N1CC1
- T/C (dose: 10.0 mg/kg/injection, schedule: Q01DX Z (ip), vehicle: carboxymethylcellulose (CMC)): 136 % of control
- survivor count (dose: 80.0 mg/kg/injection, schedule: Q01DX Z (ip), vehicle: carboxymethylcellulose (CMC)): 6 of 6
- survivor count (dose: 160.0 mg/kg/injection, schedule: Q01DX Z (ip), vehicle: carboxymethylcellulose (CMC)): 5 of 6

SMILES: CC(C)(C)CC(C)(C)NCC#N
- survivor count (dose: 50.0 mg/kg/injection, schedule: Q04DX003 (ip), vehicle: Klucel (hydroxypropylcellulose) (HPC)): 2 of 6
- survivor count (dose: 100.0 mg/kg/injection, schedule: Q04DX003 (ip), vehicle: Klucel (hydroxypropylcellulose) (HPC)): 0 of 6
- survivor count [5]: 0 of 6
- survivor count [4]: 1 of 6

SMILES: CN(C)Cc1ccccc1C(O)(c1ccccc1)c1ccccc1CN(C)C
- survivor count (dose: 64.0 mg/kg/injection, schedule: Q01DX015 (ip), vehicle: carboxymethylcellulose (CMC)): 6 of 6

SMILES: ClCCN(CCCl)CCCN1c2ccccc2Sc2ccc(Cl)cc21
- survivor count (dose: 25.0 mg/kg/injection, schedule: Q01DX009 (ip), vehicle: saline with Tween-80): 5 of 6
- survivor count (dose: 50.0 mg/kg/injection, schedule: Q01DX009 (ip), vehicle: saline with Tween-80): 3 of 6
- survivor count (dose: 75.0 mg/kg/injection, schedule: Q04DX003 (ip), vehicle: alcohol): 1 of 6
- survivor count (dose: 113.0 mg/kg/injection, schedule: Q04DX003 (ip), vehicle: alcohol): 0 of 6
- survivor count (dose: 170.0 mg/kg/injection, schedule: Q04DX003 (ip), vehicle: alcohol): 0 of 6

SMILES: CNCCCC1c2ccccc2C=Cc2ccccc21
- survivor count (dose: 50.0 mg/kg/injection, schedule: Q01DX009 (ip), vehicle: saline): 2 of 6
- survivor count (dose: 100.0 mg/kg/injection, schedule: Q04DX003 (ip), vehicle: saline): 2 of 4
- survivor count [6]: 0 of 4
- survivor count [7]: 0 of 4

SMILES: O=C(OCCOCCN1CCCCC1)N1c2ccccc2Sc2cccnc21
- survivor count (dose: 100.0 mg/kg/injection, schedule: Q01DX009 (ip), vehicle: saline): 2 of 6
- survivor count (dose: 200.0 mg/kg/injection, schedule: Q01DX001 (ip), vehicle: saline): 0 of 4
- survivor count [6]: 0 of 4
- survivor count (dose: 400.0 mg/kg/injection, schedule: Q01DX001 (ip), vehicle: saline): 0 of 4
- survivor count [7]: 0 of 4

SMILES: O=c1[nH]nnc2ccccc12
- survivor count (dose: 200.0 mg/kg/injection, schedule: Q01DX009 (ip), vehicle: saline): 1 of 6
- survivor count (dose: 400.0 mg/kg/injection, schedule: Q04DX003 (ip), vehicle: alcohol): 2 of 6

SMILES: O=C(COc1ccc(Cl)c(Cl)c1)NCc1ccc[n+](Cc2ccc(S(=O)(=O)F)cc2Cl)c1
- survivor count (dose: 100.0 mg/kg/injection, schedule: Q04DX003 (ip), vehicle: saline with Tween-80): 5 of 6
- survivor count (dose: 200.0 mg/kg/injection, schedule: Q04DX003 (ip), vehicle: saline with Tween-80): 0 of 6
- survivor count (dose: 400.0 mg/kg/injection, schedule: Q04DX003 (ip), vehicle: saline with Tween-80): 0 of 6

SMILES: CC1C(C)[N+]1=P(c1ccccc1)(c1ccccc1)c1ccccc1 (stereo unspecified)
- survivor count (dose: 15.0 mg/kg/injection, schedule: Q01DX001 (ip), vehicle: carboxymethylcellulose (CMC)): 5 of 6
- survivor count (dose: 30.0 mg/kg/injection, schedule: Q01DX001 (ip), vehicle: carboxymethylcellulose (CMC)): 2 of 6
- survivor count (dose: 60.0 mg/kg/injection, schedule: Q01DX001 (ip), vehicle: carboxymethylcellulose (CMC)): 2 of 6
- survivor count (dose: 75.0 mg/kg/injection, schedule: Q01DX001 (ip), vehicle: carboxymethylcellulose (CMC)): 1 of 6
- survivor count (dose: 150.0 mg/kg/injection, schedule: Q01DX001 (ip), vehicle: carboxymethylcellulose (CMC)): 0 of 6
- survivor count (dose: 300.0 mg/kg/injection, schedule: Q01DX001 (ip), vehicle: carboxymethylcellulose (CMC)): 0 of 6

SMILES: N#CCN1CCCCCC1
- survivor count (dose: 20.0 mg/kg/injection, schedule: Q01DX009 (ip), vehicle: Klucel (hydroxypropylcellulose) (HPC)): 3 of 6
- survivor count (dose: 40.0 mg/kg/injection, schedule: Q04DX003 (ip), vehicle: Klucel (hydroxypropylcellulose) (HPC)): 0 of 6

SMILES: O=C(Nc1ccc(NC2=NCCN2)cc1)c1ccc(C(=O)Nc2ccc(NC3=NCCN3)cc2)c([N+](=O)[O-])c1
- T/C [8]: 148 % of control
- survivor count [9]: 1 of 6
- survivor count [10]: 0 of 6
- survivor count [11]: 0 of 6

SMILES: CCCC(=O)Nc1cc2c3c(c1)CCCN3CCC2
- survivor count (dose: 100.0 mg/kg/injection, schedule: Q01DX009 (ip), vehicle: saline with Tween-80): 2 of 6
- survivor count (dose: 200.0 mg/kg/injection, schedule: Q01DX009 (ip), vehicle: saline with Tween-80): 0 of 6
- survivor count (dose: 400.0 mg/kg/injection, schedule: Q01DX009 (ip), vehicle: saline with Tween-80): 0 of 6

SMILES: O=Nc1ccc(-[n+]2ccccc2)c([N+](=O)[O-])c1
- survivor count [1]: 3 of 6
- survivor count [2]: 0 of 6

SMILES: O=C1C(Br)=Cc2cccc3cccc1c23
- survivor count [5]: 6 of 6

SMILES: CCN(CC)CCOCCN(CC)CC
- survivor count [2]: 3 of 6

SMILES: CN=C(NC)c1ccc(NC(=O)/C=C\c2ccc(C(=O)Nc3ccc(C(=NC)NC)cc3)cc2)cc1
- T/C (dose: 1.88 mg/kg/injection, schedule: Q01DX Z (ip), vehicle: saline): 135 and 145 % of control
- T/C (dose: 2.0 mg/kg/injection, schedule: Q01DX Z (ip), vehicle: saline): 145 % of control
- T/C [8]: 140 % of control
- T/C (dose: 8.0 mg/kg/injection, schedule: Q01DX Z (sc), vehicle: saline): 134 % of control
- T/C (dose: 8.0 mg/kg/injection, schedule: Q02DX004 (im), vehicle: saline): 135 % of control
- survivor count (dose: 15.0 mg/kg/injection, schedule: Q01DX Z (ip), vehicle: saline): 2 of 6
- survivor count [9]: 0 of 6
- survivor count [10]: 0 of 6
- T/C (dose: 64.0 mg/kg/injection, schedule: Q01DX004 (im), vehicle: saline): 149 % of control [5 of 6 alive]
- survivor count [11]: 0 of 6

SMILES: Cc1cccc(C(=O)NO)c1O
- survivor count [2]: 0 of 6

SMILES: Cc1cccc(C)c1NC(=O)c1c(Cl)c(Cl)c(Cl)c(Cl)c1C(=O)O
- survivor count [3]: 3 of 6
- survivor count (dose: 400.0 mg/kg/injection, schedule: Q01DX009 (ip), vehicle: Klucel (hydroxypropylcellulose) (HPC)): 0 of 6

From PubChem BioAssay AID248 (DTP/NCI, 2004)
